Data from patent publication US5034419A, “N-cycloalkylalkylamines, process for their preparation, their use as medicament and their synthesis intermediates” (L'Oreal, priority 1988, dated 1991).
At least one compound was matched to its structure with a doubt left.

Legend:
[1] = target: PCP receptors; assay: in vitro affinity for phencyclidine (PCP) receptors; format: binding; conditions: Table 3; read-out: PCP rec. IC50
Procedure: (§1) The "in vitro" study of the affinity of the compounds according to the invention for the three opium receptors is carried out in accordance with the technique described by F. Roman and coll. in J. Pharm. Pharmacol. 1987, 39, p. 404-407 and the study of the affinity for PCP receptors is carried out in accordance with the technique described by Vignon J. and coll. in "Brain Res." 1983; 280, p. 194-7 and 1986; 378, p. 133-41.
(§2) The results shown in table 3 are, for each receptor studied, expressed in IC50, which are the nanomolar concentrations of the dissolved products which are capable of inhibiting 50% of the bonds between the specific radioactive ligand to the receptor under consideration.

[2] = target: mu receptors; assay: in vitro affinity for mu receptors; format: binding; conditions: Table 3; read-out: mu rec. IC50
Procedure: as §1, §2

Q: `Cc1ccccc1NC(=N)Nc1ccccc1C` [DTG, ditolylguanidine, reference compound] was tested. Which IC50 [1] did it give?
A: 6.75 µM

Q: And the IC50 [2]?
A: 3.97 µM
